Measured data: PubChem BioAssay AID743121 (NCATS, 2013)

Purpose: 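Partners whose loss is lethal together with topoisomerase I blockade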 (primary screen)
Cell system: MDA-MB-231 cells, a human breast cancer line
Reagents: single siRNA against human genes, 20 nM siRNA (0.8 pmol per well)
Time to read-out: 120 h (drug added 48 h after transfection, read 72 h later)
Conditions: camptothecin 20 nM (about EC30) for 72 h; vehicle 0.1% DMSO in parallel plates
Measured: 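CellTiter-Glo ATP signal, scaled to control siRNA as percent viability; sensitisation given as log2 of untreated divided by camptothecin-treated viability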
Direction: log2 vehicle/camptothecin viability: higher = stronger sensitisation to camptothecin; viability with camptothecin and viability without drug: higher = more viable cells
Hit rule: 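Each gene scored by redundant siRNA activity (RSA) over its individual siRNA ratios; a gene is called active at p < 0.001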
The deposit covers about 26,000 reagents; shown is a part drawn at random. Over the whole deposit, 167 (0.63%) got an active call. 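Calls are per gene from RSA p-values that are not deposited; an individual active-marked siRNA can sensitise only weakly.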 Entries without a mark were called inactive. The numbers tell different reagents against one gene apart.

no.	gene	siRNA no.	log2 vehicle/camptothecin viability	viability with camptothecin (% of control)	viability without drug (% of control)
1	EI24 (EI24 autophagy associated transmembrane protein)	1	-0.628	53.5	34.6
2	EI24 (EI24 autophagy associated transmembrane protein)	2	-0.24	88.4	74.8
3	EI24 (EI24 autophagy associated transmembrane protein)	3	1.28	20.8	50.6
4	EI24 (EI24 autophagy associated transmembrane protein)	4	-0.106	102	94.9
5	IRAK3 (interleukin 1 receptor associated kinase 3)	1	-0.255	80.6	67.5
6	IRAK3 (interleukin 1 receptor associated kinase 3)	2	0.109	88.9	95.9
7	IRAK3 (interleukin 1 receptor associated kinase 3)	3	0.763	34.4	58.4
8	IRAK3 (interleukin 1 receptor associated kinase 3)	4	0.0275	78.6	80.2
9	SLC52A2	1	0.246	50.9	60.4
10	SLC52A2	2	0.966	17.9	35
11	SLC52A2	3	-0.0213	69.5	68.5
12	SLC52A2	4	-0.41	79.4	59.8
13	DBH (dopamine beta-hydroxylase)	1	0.112	53	57.2
14	DBH (dopamine beta-hydroxylase)	2	-0.803	27.7	15.9
15	DBH (dopamine beta-hydroxylase)	3	-0.136	68.3	62.2
16	MED15 (mediator complex subunit 15)	1	-0.564	116	78.4
17	MED15 (mediator complex subunit 15)	2	-0.0407	55.7	54.1
18	MED15 (mediator complex subunit 15)	3	-0.223	44.1	37.8
19	MED15 (mediator complex subunit 15)	4	0.602	32.3	49
20	TAOK2 (TAO kinase 2)	1	0.176	62.4	70.5
21	TAOK2 (TAO kinase 2)	2	0.0807	55.9	59.1
22	TAOK2 (TAO kinase 2)	3	0.179	57.1	64.6
23	TAOK2 (TAO kinase 2)	4	-0.413	90.3	67.8
24	IL4I1 (interleukin 4 induced 1)	1	0.0393	80	82.2
25	IL4I1 (interleukin 4 induced 1)	2	-0.234	84.9	72.2
26	IL4I1 (interleukin 4 induced 1)	3	1.42	14.1	37.6
27	IL4I1 (interleukin 4 induced 1)	4	0.817	44.2	77.8
28	PHF13 (PHD finger protein 13)	1	-0.0751	92.3	87.6
29	PHF13 (PHD finger protein 13)	2	-0.0547	41	39.5
30	PHF13 (PHD finger protein 13)	3	0.643	11.4	17.8
31	PHF13 (PHD finger protein 13)	4	-0.358	60.6	47.3
32	NAA16 (N-alpha-acetyltransferase 16, NatA auxiliary subunit)	1	-0.0802	87.6	82.8
33	NAA16 (N-alpha-acetyltransferase 16, NatA auxiliary subunit)	2	0.00221	104	105
34	NAA16 (N-alpha-acetyltransferase 16, NatA auxiliary subunit)	3	-0.31	129	104
35	NAA16 (N-alpha-acetyltransferase 16, NatA auxiliary subunit)	4	-0.36	58.2	45.3
36	WNK1 (WNK lysine deficient protein kinase 1)	1	0.0147	35.1	35.5
37	WNK1 (WNK lysine deficient protein kinase 1)	2	0.408	63.7	84.5
38	WNK1 (WNK lysine deficient protein kinase 1)	3	0.0663	64	67
39	WNK1 (WNK lysine deficient protein kinase 1)	4	-0.359	76	59.3
40	ACO1 (aconitase 1)	1	-0.158	82.5	74
41	ACO1 (aconitase 1)	2	0.104	50.6	54.4
42	ACO1 (aconitase 1)	3	0.442	54.9	74.6
43	ACO1 (aconitase 1)	4	-0.0712	61.2	58.3
44	HELZ2 (helicase with zinc finger 2)	1	0.212	69.9	80.9
45	HELZ2 (helicase with zinc finger 2)	2	-0.236	115	97.6
46	HELZ2 (helicase with zinc finger 2)	3	-0.575	93.6	62.8
47	HELZ2 (helicase with zinc finger 2)	4	-0.219	112	95.9
48	CD36 (CD36 molecule (CD36 blood group))	1	-0.311	112	90.4
49	CD36 (CD36 molecule (CD36 blood group))	2	-0.0418	44.2	42.9
50	CD36 (CD36 molecule (CD36 blood group))	3	-0.154	110	99.1
51	CD36 (CD36 molecule (CD36 blood group))	4	-0.376	112	86
52	IP6K3 (inositol hexakisphosphate kinase 3)	1	-0.499	64.6	45.7
53	IP6K3 (inositol hexakisphosphate kinase 3)	2	-0.306	82.5	66.7
54	IP6K3 (inositol hexakisphosphate kinase 3)	3	-0.326	78.7	62.7
55	IP6K3 (inositol hexakisphosphate kinase 3)	4	-0.457	97.3	70.9
56	MPP1 (MAGUK p55 scaffold protein 1)	1	-0.0051	71.4	71.1
57	MPP1 (MAGUK p55 scaffold protein 1)	2	-0.424	52.7	39.3
58	MPP1 (MAGUK p55 scaffold protein 1)	3	-0.37	96.7	74.8
59	MPP1 (MAGUK p55 scaffold protein 1)	4	-0.317	72.9	58.5
60	KRAS (KRas proto-oncogene, GTPase)	1	-0.574	46	30.9
61	KRAS (KRas proto-oncogene, GTPase)	2	-0.0152	85.7	84.8
62	KRAS (KRas proto-oncogene, GTPase)	3	-0.647	93.4	59.6
63	NEUROD4 (neuronal differentiation 4)	1	-0.361	90.5	70.5
64	NEUROD4 (neuronal differentiation 4)	2	-0.195	85.8	74.9
65	NEUROD4 (neuronal differentiation 4)	3	-0.265	67.4	56.1
66	NEUROD4 (neuronal differentiation 4)	4	-0.228	71.9	61.4
67	WASF2 (WASP family member 2)	1	-0.328	69.5	55.3
68	WASF2 (WASP family member 2)	2	0.229	50.7	59.4
69	WASF2 (WASP family member 2)	3	-0.247	111	93.3
70	WASF2 (WASP family member 2)	4	-0.273	122	101
71	ARID4A (AT-rich interaction domain 4A)	1	-0.0419	109	106
72	ARID4A (AT-rich interaction domain 4A)	2	0.42	63.9	85.5
73	ARID4A (AT-rich interaction domain 4A)	3	-0.302	88.7	72
74	ARID4A (AT-rich interaction domain 4A)	4	-0.548	101	68.8
75	ACADM (acyl-CoA dehydrogenase medium chain)	1	-0.0594	94.4	90.6
76	ACADM (acyl-CoA dehydrogenase medium chain)	2	-0.112	125	116
77	ACADM (acyl-CoA dehydrogenase medium chain)	3	-0.207	120	104
78	OR1G1 (olfactory receptor family 1 subfamily G member 1)	1	0.149	91.9	102
79	OR1G1 (olfactory receptor family 1 subfamily G member 1)	2	-0.0755	48	45.5
80	OR1G1 (olfactory receptor family 1 subfamily G member 1)	3	0.0743	73.2	77.1
81	OR1G1 (olfactory receptor family 1 subfamily G member 1)	4	0.337	62	78.3
82	UHMK1 (U2AF homology motif kinase 1)	1	-0.0604	117	112
83	UHMK1 (U2AF homology motif kinase 1)	2	0.0387	106	109
84	UHMK1 (U2AF homology motif kinase 1)	3	0.125	96.9	106
85	UHMK1 (U2AF homology motif kinase 1)	4	-0.0109	108	107
86	BPIFC (BPI fold containing family C)	1	-0.0839	105	99.2
87	BPIFC (BPI fold containing family C)	2	-0.0243	63.9	62.8
88	BPIFC (BPI fold containing family C)	3	-0.485	41.4	29.5

No new results follow: 13 of the entries above.
no.	gene	siRNA no.	log2 vehicle/camptothecin viability	viability with camptothecin (% of control)	viability without drug (% of control)
39	WNK1 (WNK lysine deficient protein kinase 1)	4	-0.359	76	59.3
40	ACO1 (aconitase 1)	1	-0.158	82.5	74
41	ACO1 (aconitase 1)	2	0.104	50.6	54.4
42	ACO1 (aconitase 1)	3	0.442	54.9	74.6
43	ACO1 (aconitase 1)	4	-0.0712	61.2	58.3
44	HELZ2 (helicase with zinc finger 2)	1	0.212	69.9	80.9
45	HELZ2 (helicase with zinc finger 2)	2	-0.236	115	97.6
46	HELZ2 (helicase with zinc finger 2)	3	-0.575	93.6	62.8
47	HELZ2 (helicase with zinc finger 2)	4	-0.219	112	95.9
48	CD36 (CD36 molecule (CD36 blood group))	1	-0.311	112	90.4
49	CD36 (CD36 molecule (CD36 blood group))	2	-0.0418	44.2	42.9
50	CD36 (CD36 molecule (CD36 blood group))	3	-0.154	110	99.1
51	CD36 (CD36 molecule (CD36 blood group))	4	-0.376	112	86
